Results from patent publication US20250302041A1, “PLANT DISEASE CONTROL METHOD” (priority 2022, published 2025).
Some results were stated once for a whole list of compounds, not compound by compound. At least one compound was matched to its structure with a doubt left.

Assays:
[1] = system: Phakopsora pachyrhizi; assay: Control test against soybean rust, foliar spray on potted soybean before inoculation (Test Examples 11, 11-2); assay type: in vivo; conditions: inoculation after 2 to 5 days
[2] = system: Microsphaera diffusa; assay: Control test against soybean powdery mildew, foliar spray on potted soybean after inoculation (Test Example 15); assay type: in vivo; conditions: 200 ppm foliar spray, sprayed 2 days after inoculation
[3] = system: Phakopsora pachyrhizi having an amino acid substitution of F129L on mitochondrial cytochrome b protein; assay: Control test against soybean rust, soybean leaf disk (Test Examples 7, 7-2); assay type: in vivo; conditions: F129L strain
[4] = system: Septoria tritici; assay: Control test against Septoria leaf blotch, foliar spray on potted wheat (Test Example 10); assay type: in vivo; conditions: 200 ppm foliar spray, inoculation after 4 days
[5] = system: Ustilago maydis; assay: Control test against corn smut fungus, growth in titer plate (Test Example 2); assay type: cell-based; conditions: 150 ppm in DMSO, 1 μL + 150 μL PDB broth; 18° C., 4 days; absorbance at 550 nm
[6] = system: soybean rust fungus spores; assay: Control test against soybean rust, spore germination in titer plate (Test Example 16); assay type: cell-based, Phakopsora pachyrhizi; conditions: 1 ppm treated concentration; 23° C., a few hours
[7] = 50 ppm, 10 μL per soybean leaf disk, inoculation after 1 day
[8] = 200 ppm, soybean leaf disk according to Test Example 7

## CCCSc1cncc(-c2cc(F)c(Cl)c(F)c2)c1 [compound 6]
[1]; 200 ppm foliar spray
  lesion area in treated soybean compared to the lesion area in an untreated soybean: ≤ 30%
[2]
  lesion area in treated soybean compared to the lesion area in an untreated soybean: ≤ 30%
[3]; [7]
  lesion area in treated leaf disk compared to the lesion areas in an untreated leaf disk: ≤ 30%

## CCCSc1cncc(-c2ccc(C)c(F)c2)c1 [compound 7]
[1]; 200 ppm foliar spray
  lesion area in treated soybean compared to the lesion area in an untreated soybean: ≤ 30%
[2]
  lesion area in treated soybean compared to the lesion area in an untreated soybean: ≤ 30%
[3]; [7]
  lesion area in treated leaf disk compared to the lesion areas in an untreated leaf disk: ≤ 30%

## CCCS(=O)(=O)c1ccnc(-c2ccc(C)c(F)c2)c1 [compound 10]
[1]; 200 ppm foliar spray
  lesion area in treated soybean compared to the lesion area in an untreated soybean: ≤ 30%
[3]; [7]
  lesion area in treated leaf disk compared to the lesion areas in an untreated leaf disk: ≤ 30%
[4]
  lesion area in treated wheat compared to the lesion area in an untreated wheat: ≤ 30%

## CCS(=O)(=O)c1cncc(-c2ccc(Cl)c(F)c2)c1 [compound 69]
[1]; 200 ppm foliar spray
  lesion area in treated soybean compared to the lesion area in an untreated soybean: ≤ 30%
[3]; [8]
  lesion area in treated leaf disk compared to the lesion areas in an untreated leaf disk: ≤ 30%
[4]
  lesion area in treated wheat compared to the lesion area in an untreated wheat: ≤ 30%

## CCS(=O)(=O)c1cncc(-c2cccc(F)c2)c1 [compound 81]
[1]; 200 ppm foliar spray
  lesion area in treated soybean compared to the lesion area in an untreated soybean: ≤ 30%
[2]
  lesion area in treated soybean compared to the lesion area in an untreated soybean: ≤ 30%
[3]; [8]
  lesion area in treated leaf disk compared to the lesion areas in an untreated leaf disk: ≤ 30%

## CCS(=O)(=O)c1cncc(-c2ccc(Br)c(F)c2)c1 [compound 89]
[1]; 200 ppm foliar spray
  lesion area in treated soybean compared to the lesion area in an untreated soybean: ≤ 30%
[3]; [8]
  lesion area in treated leaf disk compared to the lesion areas in an untreated leaf disk: ≤ 30%
[4]
  lesion area in treated wheat compared to the lesion area in an untreated wheat: ≤ 30%

## CCS(=O)(=O)c1cncc(-c2cc(C)c(F)c(C)c2)c1 [compound 91]
[1]; 200 ppm foliar spray
  lesion area in treated soybean compared to the lesion area in an untreated soybean: ≤ 30%
[3]; [8]
  lesion area in treated leaf disk compared to the lesion areas in an untreated leaf disk: ≤ 30%
[4]
  lesion area in treated wheat compared to the lesion area in an untreated wheat: ≤ 30%

## CCS(=O)(=O)c1cncc(-c2cc(Cl)cc(Cl)c2)c1 [compound 93]
[1]; 200 ppm foliar spray
  lesion area in treated soybean compared to the lesion area in an untreated soybean: ≤ 30%
[4]
  lesion area in treated wheat compared to the lesion area in an untreated wheat: ≤ 30%

## CCS(=O)(=O)c1cncc(-c2cccc(OC)c2)c1 [compound 97]
[1]; 200 ppm foliar spray
  lesion area in treated soybean compared to the lesion area in an untreated soybean: ≤ 30%
[3]; [8]
  lesion area in treated leaf disk compared to the lesion areas in an untreated leaf disk: ≤ 30%
[4]
  lesion area in treated wheat compared to the lesion area in an untreated wheat: ≤ 30%

## CCCS(=O)(=O)c1cncc(-c2cc(F)c(C)c(F)c2)c1 [compound 118]
[1]; 200 ppm foliar spray
  lesion area in treated soybean compared to the lesion area in an untreated soybean: ≤ 30%
[3]; [8]
  lesion area in treated leaf disk compared to the lesion areas in an untreated leaf disk: ≤ 30%

## Cc1ccc(-c2cncc(S(=O)(=O)c3ccncc3)c2)cc1F [compound 121]
[1]; 200 ppm foliar spray
  lesion area in treated soybean compared to the lesion area in an untreated soybean: ≤ 30%
[3]; [8]
  lesion area in treated leaf disk compared to the lesion areas in an untreated leaf disk: ≤ 30%

## Cc1ccc(-c2cncc([S+]([O-])c3ccncc3)c2)cc1F (centres unmarked) [compound 122]
[1]; 200 ppm foliar spray
  lesion area in treated soybean compared to the lesion area in an untreated soybean: ≤ 30%
[3]; [8]
  lesion area in treated leaf disk compared to the lesion areas in an untreated leaf disk: ≤ 30%

## Cc1ccc(-c2cncc(S(=O)(=O)c3cccc(F)c3)c2)cc1F [compound 123]
[1]; 200 ppm foliar spray
  lesion area in treated soybean compared to the lesion area in an untreated soybean: ≤ 30%
[3]; [8]
  lesion area in treated leaf disk compared to the lesion areas in an untreated leaf disk: ≤ 30%

## Cc1ccc(-c2cncc([S+]([O-])c3cccc(F)c3)c2)cc1F (centres unmarked) [compound 124]
[1]; 200 ppm foliar spray
  lesion area in treated soybean compared to the lesion area in an untreated soybean: ≤ 30%
[3]; [8]
  lesion area in treated leaf disk compared to the lesion areas in an untreated leaf disk: ≤ 30%

## Cc1ccc(-c2cncc(S(=O)(=O)c3ccco3)c2)cc1F [compound 125]
[1]; 200 ppm foliar spray
  lesion area in treated soybean compared to the lesion area in an untreated soybean: ≤ 30%
[3]; [8]
  lesion area in treated leaf disk compared to the lesion areas in an untreated leaf disk: ≤ 30%

## Cc1ccc(-c2cc(S(=O)(=O)c3ccco3)c[n+]([O-])c2)cc1F [compound 126]
[1]; 200 ppm foliar spray
  lesion area in treated soybean compared to the lesion area in an untreated soybean: ≤ 30%
[3]; [8]
  lesion area in treated leaf disk compared to the lesion areas in an untreated leaf disk: ≤ 30%

## Cc1ccc(-c2cncc(S(=O)(=O)c3ccoc3)c2)cc1F [compound 127]
[1]; 200 ppm foliar spray
  lesion area in treated soybean compared to the lesion area in an untreated soybean: ≤ 30%
[3]; [8]
  lesion area in treated leaf disk compared to the lesion areas in an untreated leaf disk: ≤ 30%

## Cc1ccc(-c2cncc([S+]([O-])c3ccoc3)c2)cc1F (centres unmarked) [compound 128]
[1]; 200 ppm foliar spray
  lesion area in treated soybean compared to the lesion area in an untreated soybean: ≤ 30%
[3]; [8]
  lesion area in treated leaf disk compared to the lesion areas in an untreated leaf disk: ≤ 30%

## Cc1ccc(-c2cncc(S(=O)(=O)c3cccs3)c2)cc1F [compound 129]
[1]; 200 ppm foliar spray
  lesion area in treated soybean compared to the lesion area in an untreated soybean: ≤ 30%
[3]; [8]
  lesion area in treated leaf disk compared to the lesion areas in an untreated leaf disk: ≤ 30%

## Cc1ccc(-c2cncc([S+]([O-])c3cccs3)c2)cc1F (centres unmarked) [compound 130]
[1]; 200 ppm foliar spray
  lesion area in treated soybean compared to the lesion area in an untreated soybean: ≤ 30%
[3]; [8]
  lesion area in treated leaf disk compared to the lesion areas in an untreated leaf disk: ≤ 30%

## Cc1ccc(-c2cncc(S(=O)(=O)c3ccsc3)c2)cc1F [compound 131]
[1]; 200 ppm foliar spray
  lesion area in treated soybean compared to the lesion area in an untreated soybean: ≤ 30%
[3]; [8]
  lesion area in treated leaf disk compared to the lesion areas in an untreated leaf disk: ≤ 30%
[5]
  growth of Ustilago maydis in treated well compared to the growth in an untreated well: ≤ 50%

## Cc1ccc(-c2cncc([S+]([O-])c3ccsc3)c2)cc1F (centres unmarked) [compound 132]
[1]; 200 ppm foliar spray
  lesion area in treated soybean compared to the lesion area in an untreated soybean: ≤ 30%
[3]; [8]
  lesion area in treated leaf disk compared to the lesion areas in an untreated leaf disk: ≤ 30%

## Cc1ccc(-c2cncc(S(=O)(=O)c3ccccn3)c2)cc1F [compound 133]
[1]; 200 ppm foliar spray
  lesion area in treated soybean compared to the lesion area in an untreated soybean: ≤ 30%
[3]; [8]
  lesion area in treated leaf disk compared to the lesion areas in an untreated leaf disk: ≤ 30%

## Cc1ccc(-c2cncc(S(=O)(=O)C(C)C)c2)cc1F [compound 134]
[1]; 50 ppm foliar spray
  lesion area in treated soybean compared to the lesion area in an untreated soybean: ≤ 30%
[3]; [8]
  lesion area in treated leaf disk compared to the lesion areas in an untreated leaf disk: ≤ 30%

## Cc1ccc(-c2cncc(Sc3cccc(F)c3)c2)cc1F [compound 146]
[1]; 200 ppm foliar spray
  lesion area in treated soybean compared to the lesion area in an untreated soybean: ≤ 30%
[3]; [8]
  lesion area in treated leaf disk compared to the lesion areas in an untreated leaf disk: ≤ 30%

## Cc1ccc(-c2cncc(S(=O)(=O)N3CCCC3)c2)cc1F [compound 154]
[1]; 200 ppm foliar spray
  lesion area in treated soybean compared to the lesion area in an untreated soybean: ≤ 30%
[3]; [8]
  lesion area in treated leaf disk compared to the lesion areas in an untreated leaf disk: ≤ 30%

## Cc1ccc(-c2cncc(Sc3cnccn3)c2)cc1F [compound 155]
[1]; 50 ppm foliar spray
  lesion area in treated soybean compared to the lesion area in an untreated soybean: ≤ 30%
[3]; [8]
  lesion area in treated leaf disk compared to the lesion areas in an untreated leaf disk: ≤ 30%

## Cc1ccc(-c2cncc(S(=O)(=O)c3ccccc3)c2)cc1F [compound 158]
[1]; 200 ppm foliar spray
  lesion area in treated soybean compared to the lesion area in an untreated soybean: ≤ 30%
[3]; [8]
  lesion area in treated leaf disk compared to the lesion areas in an untreated leaf disk: ≤ 30%

## CCCS(=O)(=O)c1cncc(-c2ccc(F)c(F)c2)c1 [compound 160]
[1]; 200 ppm foliar spray
  lesion area in treated soybean compared to the lesion area in an untreated soybean: ≤ 30%
[6]
  number of germinated spores compared to the number of germinated spores in an untreated group: ≤ 50%
[3]; [8]
  lesion area in treated leaf disk compared to the lesion areas in an untreated leaf disk: ≤ 30%

## CCCS(=O)(=O)c1cncc(-c2ccc(C)c(C)c2)c1 [compound 161]
[1]; 200 ppm foliar spray
  lesion area in treated soybean compared to the lesion area in an untreated soybean: ≤ 30%
[6]
  number of germinated spores compared to the number of germinated spores in an untreated group: ≤ 50%
[3]; [8]
  lesion area in treated leaf disk compared to the lesion areas in an untreated leaf disk: ≤ 30%

## CCCS(=O)(=O)c1cncc(-c2ccc(C)c(Cl)c2)c1 [compound 162]
[1]; 200 ppm foliar spray
  lesion area in treated soybean compared to the lesion area in an untreated soybean: ≤ 30%
[6]
  number of germinated spores compared to the number of germinated spores in an untreated group: ≤ 50%
[3]; [8]
  lesion area in treated leaf disk compared to the lesion areas in an untreated leaf disk: ≤ 30%

## CCCS(=O)(=O)c1cncc(-c2cc(F)cc(F)c2)c1 [compound 169]
[1]; 200 ppm foliar spray
  lesion area in treated soybean compared to the lesion area in an untreated soybean: ≤ 30%
[3]; [8]
  lesion area in treated leaf disk compared to the lesion areas in an untreated leaf disk: ≤ 30%

## CCCCS(=O)(=O)c1cncc(-c2ccc(C)cc2)c1 [compound 170]
[1]; 200 ppm foliar spray
  lesion area in treated soybean compared to the lesion area in an untreated soybean: ≤ 30%
[3]; [8]
  lesion area in treated leaf disk compared to the lesion areas in an untreated leaf disk: ≤ 30%

## CCCCS(=O)(=O)c1cncc(-c2ccc(F)c(F)c2)c1 [compound 171]
[1]; 200 ppm foliar spray
  lesion area in treated soybean compared to the lesion area in an untreated soybean: ≤ 30%
[3]; [8]
  lesion area in treated leaf disk compared to the lesion areas in an untreated leaf disk: ≤ 30%

## CCCCS(=O)(=O)c1cncc(-c2ccc(C)c(F)c2)c1 [compound 172]
[1]; 200 ppm foliar spray
  lesion area in treated soybean compared to the lesion area in an untreated soybean: ≤ 30%
[3]; [8]
  lesion area in treated leaf disk compared to the lesion areas in an untreated leaf disk: ≤ 30%

## CCCCS(=O)(=O)c1cncc(-c2ccc(C)c(Cl)c2)c1 [compound 173]
[1]; 200 ppm foliar spray
  lesion area in treated soybean compared to the lesion area in an untreated soybean: ≤ 30%
[3]; [8]
  lesion area in treated leaf disk compared to the lesion areas in an untreated leaf disk: ≤ 30%

## Cc1ccc(-c2cncc(S(=O)(=O)C3CCCC3)c2)cc1 [compound 174]
[1]; 200 ppm foliar spray
  lesion area in treated soybean compared to the lesion area in an untreated soybean: ≤ 30%
[3]; [8]
  lesion area in treated leaf disk compared to the lesion areas in an untreated leaf disk: ≤ 30%
